Experimental findings from PubChem BioAssay AID248 (DTP/NCI, 2004) are described below.

The list is a part of this screen's results and no random one: it gathers tests that were run many times, whatever their T/C, doses with no T/C, and many T/C values between a quarter and a half above the control. Further doses and runs are listed elsewhere. T/C is the treated group as % of the vehicle group. Some doses have a count of surviving animals in place of a T/C: the source holds a T/C of zero for them, seemingly a mark for toxic or unscored doses. Some doses without a T/C left all or most animals alive at the check, yet need not have been tolerated: survival well below the control is almost never listed, so the zero probably covers shortened survival too. Survivors were counted at the toxicity check, usually on the fifth day, unless a day is given; later deaths do not show. Schedules are NCI's codes, taken here to give the interval after Q, in days (D) or hours (H), and the number of doses after X. Some schedule codes hold Z or #, which are not explained here. Some entries were tested several times; the results are listed from low to high. Some structures stand for samples that the source files as different forms (salt, stereo form or complex); doses refer to the form tested. For survival time, the PubChem record calls one and a half times the control and up active, and a quarter to a half above the control has no call in these data; cut-offs in other NCI protocols can differ. Some T/C values carry the count of animals alive at the toxicity check (mostly the fifth day); where none is given, no animal had died by that day.

The test system of the test is L1210 leukemia ip in BDF1 mice, survival T/C. The test can be described thus: NCI In Vivo Anticancer Drug Screen. Data for tumor model L1210 Leukemia (intraperitoneal) in B6D2F1 (BDF1) mice. The following applies: T/C endpoint: mean survival time, higher T/C = longer survival.
[1] abbreviates: dose: 10.0 mg/kg/injection, schedule: Q01DX001 (ip), vehicle: saline.
Where [2] appears, read: dose: 20.0 mg/kg/injection, schedule: Q01DX001 (ip), vehicle: saline.
The mark [3] stands for this setting: dose: 40.0 mg/kg/injection, schedule: Q01DX001 (ip), vehicle: saline.
Where [4] appears, read: dose: 80.0 mg/kg/injection, schedule: Q01DX001 (ip), vehicle: saline.
[5] abbreviates: dose: 100.0 mg/kg/injection, schedule: Q01DX001 (ip), vehicle: saline.
[6] abbreviates: dose: 200.0 mg/kg/injection, schedule: Q01DX001 (ip), vehicle: saline.
The mark [7] stands for this setting: dose: 400.0 mg/kg/injection, schedule: Q01DX001 (ip), vehicle: saline.
Where [8] appears, read: dose: 50.0 mg/kg/injection, schedule: Q01DX009 (ip), vehicle: saline.
Where [9] appears, read: dose: 100.0 mg/kg/injection, schedule: Q04DX003 (ip), vehicle: saline with Tween-80.
Where [10] appears, read: dose: 200.0 mg/kg/injection, schedule: Q04DX003 (ip), vehicle: saline with Tween-80.
Where [11] appears, read: dose: 400.0 mg/kg/injection, schedule: Q04DX003 (ip), vehicle: saline with Tween-80.
Where [12] appears, read: dose: 50.0 mg/kg/injection, schedule: Q01DX001 (ip), vehicle: saline.
[13] abbreviates: dose: 100.0 mg/kg/injection, schedule: Q04DX003 (ip), vehicle: saline.
The mark [14] stands for this setting: dose: 200.0 mg/kg/injection, schedule: Q04DX003 (ip), vehicle: saline.
Where [15] appears, read: dose: 400.0 mg/kg/injection, schedule: Q04DX003 (ip), vehicle: saline.
[16] abbreviates: dose: 100.0 mg/kg/injection, schedule: Q01DX009 (ip), vehicle: saline.

As for `Nc1ncc2[nH]c(I)nc2n1`, the survivor count is on record as 3 of 6 under setting [1]; 3 of 6 under setting [2]; 0 of 6 under setting [3]; 0 of 6 under setting [4]; 0 of 4 under setting [5]; 0 of 4 under setting [6]. For the same compound, under setting [7], the survivor count is on record as 0 of 4.
Regarding `COc1nc(Cl)nc(Cl)n1`, the survivor count by setting is: (dose: 12.0 mg/kg/injection, schedule: Q01DX Z (ip), vehicle: methylcellulose (MC)) 1 of 6; (dose: 25.0 mg/kg/injection, schedule: Q01DX Z (ip), vehicle: methylcellulose (MC)) 0 of 6; (dose: 50.0 mg/kg/injection, schedule: Q01DX Z (ip), vehicle: methylcellulose (MC)) 0 of 6; (dose: 100.0 mg/kg/injection, schedule: Q01DX Z (ip), vehicle: methylcellulose (MC)) 0 of 6; (dose: 200.0 mg/kg/injection, schedule: Q01DX Z (ip), vehicle: methylcellulose (MC)) 0 of 6.
`N/C(=N/N=C/c1ccc(N(CCCl)CCCl)cc1)N[N+](=O)[O-]`: the survivor count reads like this: (dose: 60.0 mg/kg/injection, schedule: Q01DX Z (oral), vehicle: methylcellulose (MC)) 3 of 6; (dose: 120.0 mg/kg/injection, schedule: Q01DX Z (oral), vehicle: methylcellulose (MC)) 1 of 6; (dose: 240.0 mg/kg/injection, schedule: Q01DX Z (oral), vehicle: methylcellulose (MC)) 2 of 6; (dose: 480.0 mg/kg/injection, schedule: Q01DX Z (oral), vehicle: methylcellulose (MC)) 2 of 6.
With `OCC1C2CCC(CC2)C1CO` (stereo not drawn), the survivor count was 0 of 6 under setting [8], 2 of 6 under setting [9], 1 of 6 under setting [10] and 0 of 6 under setting [11].
As for `Nc1nc(N)c2c(n1)CN(Cc1ccccc1)C2`, the survivor count (dose: 100.0 mg/kg/injection, schedule: Q01DX001 (ip), vehicle: carboxymethylcellulose (CMC)) was 0 of 4 and 1 of 4; the survivor count (dose: 200.0 mg/kg/injection, schedule: Q01DX001 (ip), vehicle: carboxymethylcellulose (CMC)) is given as 0 of 4; the survivor count (dose: 400.0 mg/kg/injection, schedule: Q01DX001 (ip), vehicle: carboxymethylcellulose (CMC)) is given as 0 of 4.
Turning to `CC1=CC(=O)C=CC1=O`, the survivor count is, setting by setting: under setting [1], 2 of 4; under setting [2], 0 of 4; under setting [3], 0 of 4; under setting [12], 0 of 4; under setting [4], 0 of 4; under setting [5], 0 of 4. Also, the survivor count under setting [6] is listed as 0 of 4 and the survivor count under setting [7] is recorded as 0 of 4.
In the case of `Cn1c2c(c3ccccc31)C(=C(c1ccccc1)c1ccccc1)c1ccccc1-2`, the survivor count (dose: 400.0 mg/kg/injection, schedule: Q04DX002 (ip), vehicle: saline with Tween-80) is given as 3 of 3.
With `CC1N=C(N)NC(=O)C1c1ccc(Cl)cc1` (stereo not drawn), the survivor count (dose: 400.0 mg/kg/injection, schedule: Q01DX009 (ip), vehicle: saline with Tween-80) is 2 of 6.
For `C=C(Cl)CSCCS`, the survivor count under setting [11] was 0 of 6.
Turning to `O=C(O)c1cccc(Cl)c1.[Ni]`, the survivor count (dose: 100.0 mg/kg/injection, schedule: Q04DX002 (ip), vehicle: Klucel (hydroxypropylcellulose) (HPC)) was 0 of 3; the survivor count (dose: 200.0 mg/kg/injection, schedule: Q04DX002 (ip), vehicle: Klucel (hydroxypropylcellulose) (HPC)) was 0 of 3; the survivor count (dose: 400.0 mg/kg/injection, schedule: Q04DX002 (ip), vehicle: Klucel (hydroxypropylcellulose) (HPC)) is recorded as 0 of 3.
In the case of `CC(N)CCc1ccccc1` (stereo not drawn), the survivor count is recorded as 1 of 6 under setting [9]; 1 of 6 under setting [13]; 1 of 6 under setting [6]; 1 of 6 under setting [10]; 0 of 6 under setting [14]; 0 of 6 under setting [7]. The survivor count under setting [15] is 0 of 6.
As to `CCOP(=S)(N/N=C1\CC2CCC1C2)OCC` (stereo not drawn), the survivor count is recorded as 2 of 4 (dose: 200.0 mg/kg/injection, schedule: Q01DX001 (ip), vehicle: other) and 0 of 4 (dose: 400.0 mg/kg/injection, schedule: Q01DX001 (ip), vehicle: other).
Take `Cc1ccc(Cl)cc1NC(=O)Oc1ccc(Cl)cc1C`: the survivor count (dose: 200.0 mg/kg/injection, schedule: Q01DX009 (ip), vehicle: Klucel (hydroxypropylcellulose) (HPC)) is given as 2 of 6 and the survivor count (dose: 400.0 mg/kg/injection, schedule: Q01DX009 (ip), vehicle: Klucel (hydroxypropylcellulose) (HPC)) is reported as 3 of 6.
Take `Cc1nc(N)[nH]c(=O)c1CCCNc1ccc(CCC(=O)CCl)cc1`: the survivor count (dose: 400.0 mg/kg/injection, schedule: Q01DX Z (ip), vehicle: carboxymethylcellulose (CMC)) is reported as 6 of 6.
On to `O=C1C2C3CCC4C5C3C1C5S(=O)(=O)C42` (stereo not drawn), for which the survivor count by setting is: (dose: 15.0 mg/kg/injection, schedule: Q01DX001 (ip), vehicle: carboxymethylcellulose (CMC)) 0 of 6; (dose: 30.0 mg/kg/injection, schedule: Q01DX001 (ip), vehicle: carboxymethylcellulose (CMC)) 0 of 6; (dose: 60.0 mg/kg/injection, schedule: Q01DX001 (ip), vehicle: carboxymethylcellulose (CMC)) 0 of 6; (dose: 75.0 mg/kg/injection, schedule: Q01DX001 (ip), vehicle: carboxymethylcellulose (CMC)) 0 of 6; (dose: 150.0 mg/kg/injection, schedule: Q01DX001 (ip), vehicle: carboxymethylcellulose (CMC)) 0 of 6; (dose: 300.0 mg/kg/injection, schedule: Q01DX001 (ip), vehicle: carboxymethylcellulose (CMC)) 0 of 6.
As for `CN1CCCC1CCNc1nc(C(Cl)(Cl)Cl)nc2ccc(Cl)cc12` (stereo not drawn), the survivor count reads like this: under setting [10], 0 of 6; under setting [11], 0 of 6.
Consider `COc1cc(N(CCCl)CCCl)ccc1CN1CCCN(Cc2ccc(N(CCCl)CCCl)cc2OC)C1c1ccccc1O`, for which, under “dose: 400.0 mg/kg/injection, schedule: Q04DX003 (ip), vehicle: Klucel (hydroxypropylcellulose) (HPC)”, the survivor count was 6 of 6.
Consider `CS(=O)(=O)OCCN(CCOS(C)(=O)=O)c1ccc(N=O)c(F)c1`, for which the T/C (dose: 5.0 mg/kg/injection, schedule: Q01DX001 (ip), vehicle: saline) was 137 and 146 % of control; the T/C under setting [1] is 137 and 145 % of control [5 of 6 alive]; the T/C (dose: 15.0 mg/kg/injection, schedule: Q01DX001 (ip), vehicle: saline) was 135 % of control [5 of 6 alive]; the T/C under setting [2] was 133 % of control. Moreover, the survivor count by setting is: under setting [12], 1 of 4; under setting [5], 0 of 4; under setting [6], 0 of 4; under setting [7], 0 of 4.
Turning to `CC(C)(C)C1CC[N-]CC1.CC(C)(C)C1CC[N-]CC1.[Cl][Pt+2]([Cl])([Cl])[Cl]`, the survivor count was 1 of 6 under setting [8], 0 of 6 under setting [16], 2 of 6 under setting [14] and 0 of 6 under setting [15].
Take `Nc1ccc2ccc(O)cc2c1`: the survivor count reads like this: under setting [16], 3 of 6; (dose: 200.0 mg/kg/injection, schedule: Q01DX009 (ip), vehicle: saline) 3 of 6; (dose: 400.0 mg/kg/injection, schedule: Q01DX009 (ip), vehicle: saline) 0 of 6; under setting [15], 0 of 6. For the same compound, under setting [13], the T/C is 144 % of control [5 of 6 alive].
Turning to `c1cc(N2CCOCC2)cc(NC2CCCCC2)n1`, the survivor count is 3 of 6 under setting [5], 1 of 6 under setting [6] and 0 of 6 under setting [7].
